Assay results published in publication PMC11329753, “Human mitochondrial carriers of the SLC25 family function as monomers exchanging substrates with a ping-pong kinetic mechanism” (The EMBO Journal, 2024).
No constants are given. Whether binding was seen depends on the method and setting.

Experiments:
[1] = target: human mitochondrial oxoglutarate carrier (human) (UniProt Q02978); test: SEC; 150 μL of purified carrier on Superdex 200 Increase 10/300 in buffer B (20 mM HEPES pH 7.0, 50 mM NaCl, 0.1 mg/mL tetraoleoyl cardiolipin/0.1% (w/v) lauryl maltose neopentyl glycol); sized against ferritin, aldolase, conalbumin and ovalbumin; total weight corrected for bound lipid/detergent (≈135 kDa); both purified
[2] = target: human mitochondrial dicarboxylate carrier (human) (UniProt Q9UBX3); test: as above

| Binder | binding [1] | binding [2] |
| --- | --- | --- |
| human mitochondrial oxoglutarate carrier (protein, UniProt Q02978) MGKPRTSPKSVKFLFGGLAGMGATVFVQPLDLVKNRMQLSGEGAKTREYKTSFHALTSILKAEGLRGIYTGLSAGLLRQATYTTTRLGIYTVLFERLTGADGTPPGFLLKAVIGMTAGATGAFVGTPAEVALIRMTADGRLPADQRRGYKNVFNALIRITREEGVLTLWRGCIPTMARAVVVNAAQLASYSQSKQFLLDSGYFSDNILCHFCASMISGLVTTAASMPVDIAKTRIQNMRMIDGKPEYKNGLDVLFKVVRYEGFFSLWKGFTPYYARLGPHTVLTFIFLEQMNKAYKRLFLSG | no binding (tested: 1.1 mg/mL (150 μL applied)) |  |
| human mitochondrial dicarboxylate carrier (protein, UniProt Q9UBX3 1-287) MGKPAAEARVSRWYFGGLASCGAACCTHPLDLLKVHLQTQQEVKLRMTGMALRVVRTDGILALYSGLSASLCRQMTYSLTRFAIYETVRDRVAKGSQGPLPFHEKVLLGSVSGLAGGFVGTPADLVNVRMQNDVKLPQGQRRNYAHALDGLYRVAREEGLRRLFSGATMASSRGALVTVGQLSCYDQAKQLVLSTGYLSDNIFTHFVASFIAGGCATFLCQPLDVLKTRLMNSKGEYQGVFHCAVETAKLGPLAFYKGLVPAGIRLIPHTVLTFVFLEQLRKNFGIKVPS |  | no binding (tested: 1.7 mg/mL (150 μL applied)) |
